{"source": "PubChem BioAssay AID1159578 (Peter MacCallum Cancer Centre, 2015)", "assay": "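Genome-wide hunt for genes controlling movement of lymphatic endothelial cells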 (primary screen)", "cell system": "human lymphatic endothelial cells", "reagents": "siRNA pool against human genes, 40 nM", "time to read-out": "48 h after transfection", "detection": "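Cells stained with dye and imaged after a scratch; covered wound area and nuclei counted, duplicates averaged, migration set against mock wells and turned into a robust z-score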", "scale": "migration robust z-score: higher = faster migration into the scratch; nuclei per well: higher = more cells in the well", "hit rule": "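Migration changed when robust z exceeds 2 or falls below -2 and mean nuclei number is at least 3300; otherwise not called changed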", "meaning of the calls": "active = migration changed; inactive = no migration change, or too few cells", "note": "The deposit covers about 18,000 reagents; shown is a random part of them. About 1,030 of them (5.7%) count as active. 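Inactive calls also include pools with fewer than 3300 nuclei, whose migration was not assessed.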 Raw values are not corrected between plates. Entries without a mark were called inactive. Further read-outs or replicates are left out here."}
{"gene symbol": "CASP8AP2 (GeneID 9994)", "migration robust z-score": -0.39, "nuclei per well, duplicate mean": 4890}
{"gene symbol": "ZNF268 (GeneID 10795)", "migration robust z-score": 0.24, "nuclei per well, duplicate mean": 5680}
{"gene symbol": "PEPD (GeneID 5184)", "migration robust z-score": 0.21, "nuclei per well, duplicate mean": 5539}
{"gene symbol": "KDM6B (GeneID 23135)", "migration robust z-score": -0.05, "nuclei per well, duplicate mean": 5632}
{"gene symbol": "CIB2 (GeneID 10518)", "migration robust z-score": -3.84, "nuclei per well, duplicate mean": 2970}
{"gene symbol": "BTN2A2 (GeneID 10385)", "migration robust z-score": 0.56, "nuclei per well, duplicate mean": 5746}
{"gene symbol": "ORM1 (GeneID 5004)", "migration robust z-score": 0.46, "nuclei per well, duplicate mean": 5858}
{"gene symbol": "ZDHHC9 (GeneID 51114)", "migration robust z-score": 1.04, "nuclei per well, duplicate mean": 5512}
{"gene symbol": "FUT4 (GeneID 2526)", "migration robust z-score": -0.05, "nuclei per well, duplicate mean": 4921}
{"gene symbol": "SOCS4 (GeneID 122809)", "migration robust z-score": 0.31, "nuclei per well, duplicate mean": 5444}
{"gene symbol": "PRRX2 (GeneID 51450)", "migration robust z-score": 0.57, "nuclei per well, duplicate mean": 6148}
{"gene symbol": "GOLIM4 (GeneID 27333)", "migration robust z-score": 0.85, "nuclei per well, duplicate mean": 5982}
{"gene symbol": "GSE1 (GeneID 23199)", "migration robust z-score": -0.14, "nuclei per well, duplicate mean": 4977}
{"gene symbol": "ERRFI1 (GeneID 54206)", "migration robust z-score": -0.77, "nuclei per well, duplicate mean": 6119}
{"gene symbol": "GJB2 (GeneID 2706)", "migration robust z-score": -1.71, "nuclei per well, duplicate mean": 5444}
{"gene symbol": "UBE2E3 (GeneID 10477)", "migration robust z-score": -1.04, "nuclei per well, duplicate mean": 5776}
{"gene symbol": "DSC3 (GeneID 1825)", "migration robust z-score": -3.8, "nuclei per well, duplicate mean": 2970}
{"gene symbol": "NPDC1 (GeneID 56654)", "migration robust z-score": -1.2, "nuclei per well, duplicate mean": 5002}
{"gene symbol": "NDP (GeneID 4693)", "migration robust z-score": -1.12, "nuclei per well, duplicate mean": 4200}
{"gene symbol": "CLUL1 (GeneID 27098)", "migration robust z-score": -1.6, "nuclei per well, duplicate mean": 6240}
{"gene symbol": "LPCAT2 (GeneID 54947)", "migration robust z-score": -1.42, "nuclei per well, duplicate mean": 5202}

As entered above:
For “migration robust z-score”, PEPD (GeneID 5184) reads 0.21
Entry for CIB2 (GeneID 10518) in “migration robust z-score”: -3.84
Under “migration robust z-score”, NDP (GeneID 4693) has -1.12
